# According to the supplement of paper PMC8728848:
# The other results are listed elsewhere or left out.
# Key:
# Test in all cases: glycan array binding signal (z-score within array); higher = stronger binding
# Conditions in all cases: glycan notation: IUPAC condensed, linker removed
# [1] = target: Neu5Ac9Ac(a2-3)Gal(b1-4)GlcNAc
# How it was run: (§1)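 Arrays were curated from the Consortium for Functional Glycomics database, 3228 in total, and kept only where the protein sequence was available. Binding is expressed as a within-array Z-score. This score was averaged across arrays of the same protein sequence at different concentrations or buffers and across linkers, and negative values can be read as non-binding.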
# [2] = target: Neu5Ac9Ac(a2-6)Gal(b1-4)GlcNAc
# How it was run: as §1
# [3] = target: Neu5Gc(a2-3)Gal(b1-3)GlcNAc
# How it was run: as §1
# [4] = target: Neu5Gc(a2-3)Gal(b1-3)[Fuc(a1-4)]GlcNAc
# How it was run: as §1
# Neu5Gc(a2-3)Gal(b1-4)Glc = target: Neu5Gc(a2-3)Gal(b1-4)Glc
# How it was run: as §1
# [5] = target: Neu5Gc(a2-3)Gal(b1-4)GlcNAc
# How it was run: as §1
# [6] = target: Neu5Gc(a2-3)Gal(b1-4)[Fuc(a1-3)]GlcNAc
# How it was run: as §1
# [7] = target: Neu5Gc(a2-6)Gal(b1-4)GlcNAc
# How it was run: as §1
# Neu5Gc(a2-6)GalNAc = target: Neu5Gc(a2-6)GalNAc
# How it was run: as §1
# [8] = target: Neu5Gc(b2-6)Gal(b1-4)GlcNAc
# How it was run: as §1
binder,measurement,setting,value
"NanH (Corynebacterium diphtheriae), C6JSW6 (protein) MYSSNRTYSRAILGLSAVLTLSFTSLVAPVNAEEPETVVPATAELEGEVAATLPSAETGLLDAAPPKPVARGAAGDLQLPAVNEKEVFEEGRVIRAPEPDQSRCYRIPALVTAKNGDLLLAFDNRYGGGDGAKTWCRDAPYENMKRINRQNMQTDIQLYRSVDNGQSFEDFGYIAQGTADVRELSYTDPALVTDRTTGKIFAFFVRAYDYRVGQSSAGFNEGDVEAEIQKRDVQDTVVVESLDGGQTWGNMRLLSALTAKVSSISTGDTIFDGRGRFVTSGAGIQLQYGEHAGRLIVPISVDIDPKDSAKFINLAIYSDDHGQTWQAGIGTAGGAGFSGDVSKIVELSDGRLMMSSKDNDKPRWVSYSEDQGENWSTPKRKIIAPPQHPEKHNTGINVGLIRAYPNAPENSAAARVLLYSAPIDQRYSHKHTEDGRNNGWVMGSCDDGKTWSFGRQIEKNRFQYSSMTVMSDGNIGMVYESGDFSTGMNLKFAKFNMAWLGADCHSNEALGLTGDIDKEIVEAQEKAAEATKEAQEAAEKVQKLTEELAAARKENDELKNQVKGFKEAVGDLANEAEDLADKVFKLETAVTEAKEKATVAEKAASDAVTQLQKAESIAEEQKAKAESAAAEAQALREKLERLEGSILTVKENPEAEEIADLSSTAKDAADAARRAATDANGALSGQKQDEEKPAMGLMGILKVLAGIIPLVAIIATIFQTFRLPFNIPGMR",glycan array binding signal (z-score),[1],0.981
same,glycan array binding signal (z-score),[2],-0.031
same,glycan array binding signal (z-score),[3],1.37
same,glycan array binding signal (z-score),[4],-0.62
same,glycan array binding signal (z-score),Neu5Gc(a2-3)Gal(b1-4)Glc,0.207
same,glycan array binding signal (z-score),[5],-0.068
same,glycan array binding signal (z-score),[6],-1.22
same,glycan array binding signal (z-score),[7],-1
same,glycan array binding signal (z-score),Neu5Gc(a2-6)GalNAc,0.15
same,glycan array binding signal (z-score),[8],-0.368
